Assay results from the supplement of paper PMC4604168 (melanoma cell lines).
Some of the results follow. Repeats are few or missing, and single values can be far off.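 Cells were imaged in 1,536-well plates, and nuclei stained with an antibody against cleaved PARP were counted against all DNA-stained nuclei to give the apoptosis fraction. Screening doses were chosen to leave most cells alive, and resting and induced cleaved-PARP levels differ strongly between cell lines.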

Legend:
Assay in all cases: cleaved PARP positive nuclei fraction relative to DMSO control; melanoma cells; higher = more apoptosis
Details in all cases: library dose: low library concentration; 72 h
COLO792 = test system: COLO792
COLO800 = test system: COLO800
COLO829 = test system: COLO829
G361 = test system: G361
IPC-298 = test system: IPC-298
IST-MEL1 = test system: IST-MEL1
LB2518-MEL = test system: LB2518-MEL
LOXIMVI = test system: LOXIMVI
MEL-HO = test system: MEL-HO
MZ2-MEL = test system: MZ2-MEL
MeWo = test system: MeWo
RPMI7951 = test system: RPMI7951
RVH-421 = test system: RVH-421
SkMel28 = test system: SkMel28
SkMel2 = test system: SkMel2
SkMel30 = test system: SkMel30
SkMel5 = test system: SkMel5
UACC257 = test system: UACC257
UACC62 = test system: UACC62

With `Clc1ccc(Nc2nnc(Cc3ccncc3)c3ccccc23)cc1` [vatalanib] + NCC(=O)Nc1ccc(-n2nc(C(F)(F)F)cc2-c2ccc3c(ccc4ccccc43)c2)cc1 [OSU03012] (first compound 2 µM, partner dose 1 µM) the “cleaved PARP positive nuclei fraction” value (COLO792) was 145%, the “cleaved PARP positive nuclei fraction” value (COLO800) was 55.9% and the “cleaved PARP positive nuclei fraction” value (COLO829) was 76.2%. For the same compound, the “cleaved PARP positive nuclei fraction” value (G361) was 86.6%, the “cleaved PARP positive nuclei fraction” value (IPC-298) was 130% and the “cleaved PARP positive nuclei fraction” value (IST-MEL1) was 32.4%. The “cleaved PARP positive nuclei fraction” value (LB2518-MEL) was 110%, the “cleaved PARP positive nuclei fraction” value (LOXIMVI) was 40.7% and the “cleaved PARP positive nuclei fraction” value (MEL-HO) was 50.1%. For the same compound, the “cleaved PARP positive nuclei fraction” value (MZ2-MEL) was 457%, the “cleaved PARP positive nuclei fraction” value (MeWo) was 122% and the “cleaved PARP positive nuclei fraction” value (RPMI7951) was 452%. The “cleaved PARP positive nuclei fraction” value (RVH-421) was 154%, the “cleaved PARP positive nuclei fraction” value (SkMel28) was 31.6% and the “cleaved PARP positive nuclei fraction” value (SkMel2) was 292%. For the same compound, the “cleaved PARP positive nuclei fraction” value (SkMel30) was 143%, the “cleaved PARP positive nuclei fraction” value (SkMel5) was 37.5% and the “cleaved PARP positive nuclei fraction” value (UACC257) was 136%. For the same compound, the “cleaved PARP positive nuclei fraction” value (UACC62) was 57%.
With `Clc1ccc(Nc2nnc(Cc3ccncc3)c3ccccc23)cc1` [vatalanib] + COc1ccc2c(c1)CCC1C2CCC2(C)C(NCCCCCCN3C(=O)C=CC3=O)CCC12 [U73122] (first compound 2 µM, partner dose 0.4 µM) the “cleaved PARP positive nuclei fraction” value (COLO792) was 77.9%, the “cleaved PARP positive nuclei fraction” value (COLO800) was 199% and the “cleaved PARP positive nuclei fraction” value (COLO829) was 178%. For the same compound, the “cleaved PARP positive nuclei fraction” value (G361) was 219%, the “cleaved PARP positive nuclei fraction” value (IPC-298) was 157% and the “cleaved PARP positive nuclei fraction” value (IST-MEL1) was 81.7%. The “cleaved PARP positive nuclei fraction” value (LB2518-MEL) was 77.9%, the “cleaved PARP positive nuclei fraction” value (LOXIMVI) was 256% and the “cleaved PARP positive nuclei fraction” value (MZ2-MEL) was 157%. The “cleaved PARP positive nuclei fraction” value (MeWo) was 40.1%, the “cleaved PARP positive nuclei fraction” value (RPMI7951) was 115% and the “cleaved PARP positive nuclei fraction” value (RVH-421) was 132%. The “cleaved PARP positive nuclei fraction” value (SkMel28) was 357%, the “cleaved PARP positive nuclei fraction” value (SkMel2) was 25900% and the “cleaved PARP positive nuclei fraction” value (SkMel30) was 163%. For the same compound, the “cleaved PARP positive nuclei fraction” value (SkMel5) was 100%, the “cleaved PARP positive nuclei fraction” value (UACC257) was 177% and the “cleaved PARP positive nuclei fraction” value (UACC62) was 144%.
`Clc1ccc(Nc2nnc(Cc3ccncc3)c3ccccc23)cc1` [vatalanib] + O=C(Nc1cccc(Cl)c1)Nc1ncc(CCNc2ncnc3ccsc23)s1 [SNS314] (first compound 2 µM, partner dose 0.0008 µM) was tested, and the “cleaved PARP positive nuclei fraction” value (COLO792) was 148%, the “cleaved PARP positive nuclei fraction” value (COLO800) was 63.9% and the “cleaved PARP positive nuclei fraction” value (COLO829) was 120%. For the same compound, the “cleaved PARP positive nuclei fraction” value (G361) was 155%, the “cleaved PARP positive nuclei fraction” value (IPC-298) was 192% and the “cleaved PARP positive nuclei fraction” value (IST-MEL1) was 68.5%. The “cleaved PARP positive nuclei fraction” value (LB2518-MEL) was 40.3%, the “cleaved PARP positive nuclei fraction” value (LOXIMVI) was 53.2% and the “cleaved PARP positive nuclei fraction” value (MEL-HO) was 153%. The “cleaved PARP positive nuclei fraction” value (MZ2-MEL) was 170%, the “cleaved PARP positive nuclei fraction” value (MeWo) was 128% and the “cleaved PARP positive nuclei fraction” value (RPMI7951) was 69.8%. For the same compound, the “cleaved PARP positive nuclei fraction” value (RVH-421) was 25.9%, the “cleaved PARP positive nuclei fraction” value (SkMel28) was 111% and the “cleaved PARP positive nuclei fraction” value (SkMel2) was 95.5%. The “cleaved PARP positive nuclei fraction” value (SkMel30) was 217%, the “cleaved PARP positive nuclei fraction” value (SkMel5) was 70.6% and the “cleaved PARP positive nuclei fraction” value (UACC257) was 100%. The “cleaved PARP positive nuclei fraction” value (UACC62) was 75.7%.
In the case of `Clc1ccc(Nc2nnc(Cc3ccncc3)c3ccccc23)cc1` [vatalanib] + O=C(CCCCCCC(=O)Nc1ccccc1)NO [vorinostat] (first compound 2 µM, partner dose 0.08 µM), the “cleaved PARP positive nuclei fraction” value (COLO792) was 134%, the “cleaved PARP positive nuclei fraction” value (COLO800) was 69.3% and the “cleaved PARP positive nuclei fraction” value (COLO829) was 52.7%. The “cleaved PARP positive nuclei fraction” value (G361) was 112%, the “cleaved PARP positive nuclei fraction” value (IPC-298) was 95.3% and the “cleaved PARP positive nuclei fraction” value (IST-MEL1) was 43.9%. For the same compound, the “cleaved PARP positive nuclei fraction” value (LB2518-MEL) was 199%, the “cleaved PARP positive nuclei fraction” value (LOXIMVI) was 57.8% and the “cleaved PARP positive nuclei fraction” value (MEL-HO) was 36.3%. The “cleaved PARP positive nuclei fraction” value (MZ2-MEL) was 165%, the “cleaved PARP positive nuclei fraction” value (MeWo) was 170% and the “cleaved PARP positive nuclei fraction” value (RPMI7951) was 48.7%. For the same compound, the “cleaved PARP positive nuclei fraction” value (RVH-421) was 88.6%, the “cleaved PARP positive nuclei fraction” value (SkMel28) was 65% and the “cleaved PARP positive nuclei fraction” value (SkMel2) was 178%. The “cleaved PARP positive nuclei fraction” value (SkMel30) was 65.1%, the “cleaved PARP positive nuclei fraction” value (SkMel5) was 42.4% and the “cleaved PARP positive nuclei fraction” value (UACC257) was 78.2%. The “cleaved PARP positive nuclei fraction” value (UACC62) was 87.6%.
With `Clc1ccc(Nc2nnc(Cc3ccncc3)c3ccccc23)cc1` [vatalanib] + O=S(=O)(c1ccccc1)N(CC(F)(F)F)c1ccc(C(O)(C(F)(F)F)C(F)(F)F)cc1 [T0901317] (first compound 2 µM, partner dose 1.4 µM) the “cleaved PARP positive nuclei fraction” value (COLO792) was 82.7%, the “cleaved PARP positive nuclei fraction” value (COLO800) was 72.2% and the “cleaved PARP positive nuclei fraction” value (COLO829) was 129%. For the same compound, the “cleaved PARP positive nuclei fraction” value (G361) was 78.5%, the “cleaved PARP positive nuclei fraction” value (IPC-298) was 47.1% and the “cleaved PARP positive nuclei fraction” value (IST-MEL1) was 129%. For the same compound, the “cleaved PARP positive nuclei fraction” value (LB2518-MEL) was 83.6%, the “cleaved PARP positive nuclei fraction” value (LOXIMVI) was 57.2% and the “cleaved PARP positive nuclei fraction” value (MZ2-MEL) was 39.3%. For the same compound, the “cleaved PARP positive nuclei fraction” value (MeWo) was 51.2%, the “cleaved PARP positive nuclei fraction” value (RPMI7951) was 180% and the “cleaved PARP positive nuclei fraction” value (RVH-421) was 36.7%. The “cleaved PARP positive nuclei fraction” value (SkMel28) was 71.9%, the “cleaved PARP positive nuclei fraction” value (SkMel2) was 58.6% and the “cleaved PARP positive nuclei fraction” value (SkMel30) was 491%. For the same compound, the “cleaved PARP positive nuclei fraction” value (SkMel5) was 34.9%, the “cleaved PARP positive nuclei fraction” value (UACC257) was 89.7% and the “cleaved PARP positive nuclei fraction” value (UACC62) was 108%.
For `Clc1ccc(Nc2nnc(Cc3ccncc3)c3ccccc23)cc1` [vatalanib] + COC(=O)c1sccc1S(=O)(=O)Nc1ccc(Nc2ccccc2)cc1OC [GSK0660] (first compound 2 µM, partner dose 1 µM), the “cleaved PARP positive nuclei fraction” value (COLO792) was 145%, the “cleaved PARP positive nuclei fraction” value (COLO800) was 155% and the “cleaved PARP positive nuclei fraction” value (COLO829) was 251%. For the same compound, the “cleaved PARP positive nuclei fraction” value (G361) was 51.3%, the “cleaved PARP positive nuclei fraction” value (IPC-298) was 53.7% and the “cleaved PARP positive nuclei fraction” value (IST-MEL1) was 84.7%. The “cleaved PARP positive nuclei fraction” value (LB2518-MEL) was 127%, the “cleaved PARP positive nuclei fraction” value (LOXIMVI) was 126% and the “cleaved PARP positive nuclei fraction” value (MZ2-MEL) was 131%. The “cleaved PARP positive nuclei fraction” value (MeWo) was 131%, the “cleaved PARP positive nuclei fraction” value (RPMI7951) was 99.6% and the “cleaved PARP positive nuclei fraction” value (RVH-421) was 74.7%. For the same compound, the “cleaved PARP positive nuclei fraction” value (SkMel28) was 140%, the “cleaved PARP positive nuclei fraction” value (SkMel2) was 50.3% and the “cleaved PARP positive nuclei fraction” value (SkMel30) was 56.7%. For the same compound, the “cleaved PARP positive nuclei fraction” value (SkMel5) was 141%, the “cleaved PARP positive nuclei fraction” value (UACC257) was 126% and the “cleaved PARP positive nuclei fraction” value (UACC62) was 107%.
With `CC(=O)c1c(C)c2cnc(Nc3ccc(N4CCNCC4)cn3)nc2n(C2CCCC2)c1=O` [palbociclib] + CCc1ccc(CCOc2ccc(CC3SC(=O)NC3=O)cc2)nc1 [pioglitazone] (first compound 0.04 µM, partner dose 2 µM) the “cleaved PARP positive nuclei fraction” value (COLO792) was 149%, the “cleaved PARP positive nuclei fraction” value (COLO800) was 26.1% and the “cleaved PARP positive nuclei fraction” value (COLO829) was 92.4%. The “cleaved PARP positive nuclei fraction” value (G361) was 140%, the “cleaved PARP positive nuclei fraction” value (IPC-298) was 104% and the “cleaved PARP positive nuclei fraction” value (IST-MEL1) was 61.9%. For the same compound, the “cleaved PARP positive nuclei fraction” value (LB2518-MEL) was 48.8%, the “cleaved PARP positive nuclei fraction” value (LOXIMVI) was 87.3% and the “cleaved PARP positive nuclei fraction” value (MZ2-MEL) was 106%. For the same compound, the “cleaved PARP positive nuclei fraction” value (MeWo) was 80.5%, the “cleaved PARP positive nuclei fraction” value (RPMI7951) was 43.1% and the “cleaved PARP positive nuclei fraction” value (RVH-421) was 272%. For the same compound, the “cleaved PARP positive nuclei fraction” value (SkMel28) was 149%, the “cleaved PARP positive nuclei fraction” value (SkMel2) was 90.7% and the “cleaved PARP positive nuclei fraction” value (SkMel30) was 55.7%. For the same compound, the “cleaved PARP positive nuclei fraction” value (SkMel5) was 209%, the “cleaved PARP positive nuclei fraction” value (UACC257) was 106% and the “cleaved PARP positive nuclei fraction” value (UACC62) was 169%.
In the case of `C=CCNC1=C2C[C@@H](C)C[C@H](OC)[C@H](O)[C@@H](C)/C=C(\C)[C@H](OC(N)=O)[C@@H](OC)/C=C\C=C(/C)C(=O)NC(=CC1=O)C2=O` [Tanespimycin] + COc1cc2ncnc(Nc3ccc(Oc4ccccc4)cc3)c2cc1OC [SrcI1] (first compound 0.002 µM, partner dose 2 µM), the “cleaved PARP positive nuclei fraction” value (COLO792) was 67.4%, the “cleaved PARP positive nuclei fraction” value (COLO800) was 47.4% and the “cleaved PARP positive nuclei fraction” value (COLO829) was 52.8%. For the same compound, the “cleaved PARP positive nuclei fraction” value (G361) was 74.7%, the “cleaved PARP positive nuclei fraction” value (IPC-298) was 145% and the “cleaved PARP positive nuclei fraction” value (IST-MEL1) was 217%. For the same compound, the “cleaved PARP positive nuclei fraction” value (LB2518-MEL) was 57%, the “cleaved PARP positive nuclei fraction” value (LOXIMVI) was 274% and the “cleaved PARP positive nuclei fraction” value (MZ2-MEL) was 55.3%. The “cleaved PARP positive nuclei fraction” value (MeWo) was 70.8%, the “cleaved PARP positive nuclei fraction” value (RPMI7951) was 21.7% and the “cleaved PARP positive nuclei fraction” value (RVH-421) was 174%. For the same compound, the “cleaved PARP positive nuclei fraction” value (SkMel28) was 138%, the “cleaved PARP positive nuclei fraction” value (SkMel2) was 96.4% and the “cleaved PARP positive nuclei fraction” value (SkMel30) was 452%. For the same compound, the “cleaved PARP positive nuclei fraction” value (SkMel5) was 34.6%, the “cleaved PARP positive nuclei fraction” value (UACC257) was 55.5% and the “cleaved PARP positive nuclei fraction” value (UACC62) was 79.4%.
